No constants are given. Whether binding was seen depends on the method and setting. Binding seen in cells or lysates may run through a third protein. Some results given as binding are weak or reduced against the parent protein; the word gives no strength.

The results in this text go back to patent publication US20030109675A1 (priority 2001, published 2003).

For the assay, the target named is T1, PapA-6H4A (E. coli) (UniProt P04127).
T1 sequence: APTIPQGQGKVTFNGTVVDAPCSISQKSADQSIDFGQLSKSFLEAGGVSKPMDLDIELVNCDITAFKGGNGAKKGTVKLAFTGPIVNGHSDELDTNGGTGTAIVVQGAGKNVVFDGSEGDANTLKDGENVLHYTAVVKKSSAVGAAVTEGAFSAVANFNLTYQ
Briefly: co-purification from periplasm on metal affinity resin.

B1: PapD chaperone (protein)
chain: AVSLDRTRAVFDGSEKSMTLDISNDNKQLPYLAQAWIENENQEKIITGPVIATPPVQRLEPGAKSMVRLSTTPDISKLPQDRESLFYFNLREIPPRSEKANVLQIALQTKIKLFYRPAAIKTRPNEVWQDQLILNKVSGGYRIENPTPYYVTVIGLGGSEKQAEEGEFETVMLSPRSEQTVKSANYNTPYLSYINDYGGRPVLSFICNGSRCSVKKEK
With B1, the binding entry is “binds”.
